# Measured values as given in paper PMC12040169 (PLOS Biology, 2025).
# This is one part of the list.
# System: T1, CTL2-GFP (C. trachomatis L2/434/Bu, GFP-expressing)
# T1 construct: L2/434/Bu, GFP-expressing
# Set-up: species or system HeLa; Intracellular C. trachomatis growth in HeLa cells, bulk GFP fluorescence relative to DMSO
# Conditions: bulk GFP, single well; 28.5 h, 10 µM; inhibitor
row,SMILES,% of control remaining
1,CC(C)COc1ccc(-c2nonc2NC(=O)c2ccco2)cc1 [CBK299802],128.574%
2,CCC(O)CNc1ccc(C(=O)N2CCC(N3CCOCC3)CC2)cn1 (stereo not drawn) [CBK306865],133.665%
3,CS(=O)(=O)Nc1cc2ccccc2c(-c2ccc3c(c2)CCO3)n1 [CBK073773],108.231%
4,CC(C)NC(=O)C[C@@H]1CCNC[C@@H]1Cc1cc(-c2ccccc2)on1 [CBK289147],134.324%
5,CN1CCN(Cc2ccccc2[N+](=O)[O-])CC1 [CBK261524],118.149%
6,Cc1cc(C[C@@H]2COC[C@H]2NCc2ccc(C)c(C)c2)on1 [CBK284883],79.7032%
7,Cn1nccc1C(=O)C1CCN(C(=O)c2cccs2)CC1 [CBK284424],104.892%
8,Cc1ccc2nc(C)c(CCC(=O)O)c(O)c2c1 [CBK262946],107.57%
9,CC(C)C(=O)Nc1cc2ccccc2c(-c2cccnc2)n1 [CBK073786],107.839%
10,O=C(c1ccsc1NS(=O)(=O)c1cc(Cl)sc1Cl)N1CCOCC1 [CBK042288],100%
11,Cc1cnc(NC(=O)C2CC(=O)N(Cc3cccs3)C2)s1 (stereo not drawn) [CBK175531],102.506%
12,O=C(COc1ccccc1[N+](=O)[O-])Nc1ccc(Cl)c(-c2nc3ncccc3o2)c1 [CBK268811],154.911%
13,COc1ncc(-c2nccnc2N[C@@H]2CCN(Cc3ccccc3)C2)c(OC)n1 [CBK036926],172.106%
14,O=C(NCCc1c[nH]c2cccc(C3(O)CCCC3)c12)C1CC1 [CBK285319],139.785%
15,OCc1ccccc1-c1nccnc1NCCc1cccnc1 [CBK037444],126.92%
16,COc1ccc(C(=O)C2=C(O)C(=O)N(CCCO)C2c2ccc(Br)cc2)cc1 (stereo not drawn) [CBK263769],100%
17,CCN1CCCN(c2ccc(-n3ccc(C)n3)nn2)CC1 [CBK306297],117.263%
18,CC[C@@H]1CCCCN1C(=O)c1sc2nc(C(C)=O)ccc2c1Cl [CBK091036],98.4855%
19,O=c1[nH]c2ccccc2n1CCOc1ccccc1 [CBK288008],129.599%
20,C[C@H](Nc1nc(-c2cccc(C(=O)NCCN(C)C)c2)cnc1N)c1ccccc1 [CBK063714],184.498%
21,Cc1c(C=Cc2cc(C(=O)O)c3ccccc3n2)cc(C#N)n1C [CBK295604],134.626%
22,Cc1ccc(NC(=O)CN(C)C)c(C)n1 [CBK200388],115.909%
23,COCC1CCN(c2ncc(C#N)cc2Cl)CC1 [CBK306410],70.7423%
24,N#Cc1c(NC(=O)CSc2nc3ccccc3s2)oc(-c2ccccc2)c1-c1ccccc1 [CBK269019],109.467%
25,O=C(CCCN1C(=O)c2cccc3cccc(c23)C1=O)N1CCN(C/C=C/c2ccccc2)CC1 [CBK263300C],107.462%
26,Cc1cccc(OCC(=O)Nc2ccc(-c3nc4ncccc4o3)cc2C)c1 [CBK269287],148.663%

# Four records picked at random from the list so far, as already listed:
row,SMILES,% of control remaining
18,CC[C@@H]1CCCCN1C(=O)c1sc2nc(C(C)=O)ccc2c1Cl [CBK091036],98.4855%
16,COc1ccc(C(=O)C2=C(O)C(=O)N(CCCO)C2c2ccc(Br)cc2)cc1 (stereo not drawn) [CBK263769],100%
6,Cc1cc(C[C@@H]2COC[C@H]2NCc2ccc(C)c(C)c2)on1 [CBK284883],79.7032%
5,CN1CCN(Cc2ccccc2[N+](=O)[O-])CC1 [CBK261524],118.149%

# Continued.

row,SMILES,% of control remaining
1,C(=C\CSC1=NCCN1)/CSC1=NCCN1 [CBK264266],120.288%
2,O=C(O)CCNS(=O)(=O)c1ccc(Cl)c(Cl)c1 [CBK268815],139.379%
3,FC(F)(F)c1ccc(CN2CCCN(c3nccc(OCc4ccc(Cl)c(Cl)c4)n3)CC2)cc1 [CBK083949],118.393%
4,CC(c1ccccc1)N(C)C(=O)Cn1c(-c2cccs2)n[nH]c1=S (stereo not drawn) [CBK296718],119.999%
5,CN(C)c1ccc(CCNC(=O)c2cn3ccccc3n2)cc1 [CBK281916],153.011%
6,COC(=O)c1ccccc1NC(=O)N1CCN(S(=O)(=O)c2ccc(Cl)cc2)CC1 [CBK266860],165.058%
7,COCc1cccc(-c2nccnc2OCc2ccccn2)c1 [CBK106953],120.188%
8,CCOC(=O)c1cnc2nc3ccccc3n2c1C [CBK270185],127.36%
9,CN1CCN(CC(=O)N2N=C(c3c(-c4ccccc4)c4cc(Cl)ccc4[nH]c3=O)CC2c2ccccc2)CC1 (stereo not drawn) [CBK267545],157.706%
10,CN1CCCN(Cc2ccc([N+](=O)[O-])s2)CC1 [CBK261558],102.206%
11,CC(C)c1ccc(NC(=O)C2=NNC(=O)CC2)cc1 [CBK057421],181.006%
12,CN(C)CCN(C)C(=O)c1cc2cc(OC(F)(F)F)ccc2[nH]1 [CBK107316],132.001%
13,Cc1[nH]c(=O)c(C#N)c(C)c1CCC(=O)NCc1cn2ccccc2n1 [CBK306325],88.0097%
14,CCN1CCN(C(=O)Cc2ccc(N(C)C)cc2)CC1 [CBK200253],120.907%
15,CCNC(=O)Nc1cc2cccnc2nc1-c1ccc2c(c1)OCCCO2 [CBK070695],100%
16,CC(=O)Nc1ccccc1NC(=O)CN(C)S(=O)(=O)c1ccc(Cl)cc1 [CBK267373],160.988%
17,O=C(Nc1ccnn1Cc1cccs1)c1cc(=O)[nH]c2ccccc12 [CBK295606],100.054%
18,CC(C)(C)OC(=O)N1CCC(CNCc2c[nH]c(-c3ccccc3)n2)CC1 [CBK056718],203.395%
19,CCS(=O)(=O)c1ccc(C(=O)Nc2nc3c(F)cc(F)cc3s2)cc1 [CBK287727],126.276%
20,CSCCCNC(=O)N1CCN(c2ccccc2)CC1 [CBK155170],100%
21,CCC(C)(C)c1ccc(S(=O)(=O)N2CCN(Cc3cc(C(=O)OC)n(C)c3)CC2)cc1 [CBK062831],61.8733%
22,O=C(O)C(Cc1ccc(O)cc1)c1ccccc1 (stereo not drawn) [CBK012287],127.821%
23,Cc1ccc(C(=O)N/C(=C\c2ccc3c(c2)OCO3)C(=O)NCC(=O)O)cc1 [CBK265669],119.31%
24,Cc1cn(CC(=O)NCC2(c3cccc(F)c3)CCCC2)nn1 [CBK281436],123.303%
25,O=C(c1cncc(O)c1)N1C2CCC1CC(c1ccc(F)cc1)C2 (stereo not drawn) [CBK283764],128.853%
